# Reference: article doi:10.1101/238709
# Amino acid sequences for entries named in this document (tags omitted).
# UniProt P17676: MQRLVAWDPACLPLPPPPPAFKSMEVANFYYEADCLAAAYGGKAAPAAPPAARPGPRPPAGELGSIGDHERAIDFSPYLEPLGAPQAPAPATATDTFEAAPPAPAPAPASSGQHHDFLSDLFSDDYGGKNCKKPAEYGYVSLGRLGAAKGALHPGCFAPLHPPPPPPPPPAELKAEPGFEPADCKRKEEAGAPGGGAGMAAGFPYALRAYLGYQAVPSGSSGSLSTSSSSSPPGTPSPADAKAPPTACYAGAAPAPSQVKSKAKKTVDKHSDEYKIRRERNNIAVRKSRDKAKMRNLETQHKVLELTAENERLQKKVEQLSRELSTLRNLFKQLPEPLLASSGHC
# UniProt Q9UBB5: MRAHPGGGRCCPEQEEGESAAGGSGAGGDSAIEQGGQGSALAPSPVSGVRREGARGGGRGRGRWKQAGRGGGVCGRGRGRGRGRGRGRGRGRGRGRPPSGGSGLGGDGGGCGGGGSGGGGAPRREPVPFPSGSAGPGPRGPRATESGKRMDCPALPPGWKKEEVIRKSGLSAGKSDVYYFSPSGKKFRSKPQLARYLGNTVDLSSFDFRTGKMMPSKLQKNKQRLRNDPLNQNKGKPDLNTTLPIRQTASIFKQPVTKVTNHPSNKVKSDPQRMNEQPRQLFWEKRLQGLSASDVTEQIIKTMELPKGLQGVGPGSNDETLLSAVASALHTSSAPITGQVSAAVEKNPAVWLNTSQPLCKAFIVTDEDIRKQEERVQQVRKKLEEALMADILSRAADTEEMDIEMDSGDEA
# UniProt Q14839: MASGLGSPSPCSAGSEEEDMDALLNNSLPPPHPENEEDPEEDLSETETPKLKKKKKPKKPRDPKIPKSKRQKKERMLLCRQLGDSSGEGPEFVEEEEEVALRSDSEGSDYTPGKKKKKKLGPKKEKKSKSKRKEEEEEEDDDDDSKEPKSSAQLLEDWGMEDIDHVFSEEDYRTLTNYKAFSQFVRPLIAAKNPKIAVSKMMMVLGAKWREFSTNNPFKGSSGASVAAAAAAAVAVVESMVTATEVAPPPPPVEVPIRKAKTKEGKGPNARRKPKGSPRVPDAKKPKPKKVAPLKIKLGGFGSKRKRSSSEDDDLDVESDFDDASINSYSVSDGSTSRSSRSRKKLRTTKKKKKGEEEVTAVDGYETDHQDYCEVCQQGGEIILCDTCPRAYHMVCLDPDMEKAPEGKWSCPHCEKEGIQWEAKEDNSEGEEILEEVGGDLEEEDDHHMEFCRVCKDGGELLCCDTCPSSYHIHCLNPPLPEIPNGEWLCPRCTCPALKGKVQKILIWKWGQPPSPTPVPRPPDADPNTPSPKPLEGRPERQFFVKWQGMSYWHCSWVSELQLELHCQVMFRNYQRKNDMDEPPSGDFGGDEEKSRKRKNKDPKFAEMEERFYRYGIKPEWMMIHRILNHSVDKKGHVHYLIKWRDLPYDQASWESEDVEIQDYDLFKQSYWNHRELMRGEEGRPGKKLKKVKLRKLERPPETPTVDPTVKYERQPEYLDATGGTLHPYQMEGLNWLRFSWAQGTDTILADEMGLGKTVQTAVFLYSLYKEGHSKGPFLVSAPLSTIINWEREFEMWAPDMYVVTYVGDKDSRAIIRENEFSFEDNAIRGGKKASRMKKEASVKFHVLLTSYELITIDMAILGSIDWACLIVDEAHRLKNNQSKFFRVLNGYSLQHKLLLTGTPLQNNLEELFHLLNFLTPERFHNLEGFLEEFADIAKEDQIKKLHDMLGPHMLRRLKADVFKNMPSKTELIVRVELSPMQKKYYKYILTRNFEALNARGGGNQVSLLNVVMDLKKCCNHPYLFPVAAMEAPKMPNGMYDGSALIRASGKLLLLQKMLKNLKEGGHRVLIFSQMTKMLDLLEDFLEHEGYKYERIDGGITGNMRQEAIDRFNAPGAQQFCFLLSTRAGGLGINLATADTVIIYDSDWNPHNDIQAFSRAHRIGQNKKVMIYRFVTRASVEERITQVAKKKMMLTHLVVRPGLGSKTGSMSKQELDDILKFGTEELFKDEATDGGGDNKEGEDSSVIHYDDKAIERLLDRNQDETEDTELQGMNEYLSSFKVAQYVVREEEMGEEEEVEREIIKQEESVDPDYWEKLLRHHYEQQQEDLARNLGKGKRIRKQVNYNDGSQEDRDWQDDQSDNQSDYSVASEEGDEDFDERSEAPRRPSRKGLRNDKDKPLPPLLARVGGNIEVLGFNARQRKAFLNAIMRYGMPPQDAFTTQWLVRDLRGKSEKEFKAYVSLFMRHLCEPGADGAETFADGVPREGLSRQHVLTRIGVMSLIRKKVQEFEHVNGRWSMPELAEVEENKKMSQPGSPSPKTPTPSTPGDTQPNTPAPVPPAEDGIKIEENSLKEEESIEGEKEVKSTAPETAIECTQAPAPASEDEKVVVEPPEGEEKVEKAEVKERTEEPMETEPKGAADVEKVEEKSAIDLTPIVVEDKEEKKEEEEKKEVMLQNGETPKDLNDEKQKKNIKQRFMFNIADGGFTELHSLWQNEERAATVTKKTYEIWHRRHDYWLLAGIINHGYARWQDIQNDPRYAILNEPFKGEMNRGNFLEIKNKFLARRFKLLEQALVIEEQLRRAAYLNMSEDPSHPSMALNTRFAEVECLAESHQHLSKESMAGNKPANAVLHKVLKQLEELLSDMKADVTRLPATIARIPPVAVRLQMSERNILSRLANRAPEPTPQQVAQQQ
# UniProt Q13547: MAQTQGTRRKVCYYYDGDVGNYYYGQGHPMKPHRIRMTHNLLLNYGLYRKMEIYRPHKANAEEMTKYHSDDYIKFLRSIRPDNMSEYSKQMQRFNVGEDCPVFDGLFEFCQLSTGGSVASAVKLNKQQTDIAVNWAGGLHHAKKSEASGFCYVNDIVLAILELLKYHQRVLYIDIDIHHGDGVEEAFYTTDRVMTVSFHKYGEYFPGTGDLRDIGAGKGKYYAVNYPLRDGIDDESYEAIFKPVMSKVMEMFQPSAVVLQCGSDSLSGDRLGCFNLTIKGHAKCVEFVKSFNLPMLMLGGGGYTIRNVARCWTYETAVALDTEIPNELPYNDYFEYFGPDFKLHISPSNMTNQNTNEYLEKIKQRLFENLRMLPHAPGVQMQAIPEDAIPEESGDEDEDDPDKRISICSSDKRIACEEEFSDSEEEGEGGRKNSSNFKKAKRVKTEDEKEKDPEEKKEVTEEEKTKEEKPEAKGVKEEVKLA
# UniProt Q12873: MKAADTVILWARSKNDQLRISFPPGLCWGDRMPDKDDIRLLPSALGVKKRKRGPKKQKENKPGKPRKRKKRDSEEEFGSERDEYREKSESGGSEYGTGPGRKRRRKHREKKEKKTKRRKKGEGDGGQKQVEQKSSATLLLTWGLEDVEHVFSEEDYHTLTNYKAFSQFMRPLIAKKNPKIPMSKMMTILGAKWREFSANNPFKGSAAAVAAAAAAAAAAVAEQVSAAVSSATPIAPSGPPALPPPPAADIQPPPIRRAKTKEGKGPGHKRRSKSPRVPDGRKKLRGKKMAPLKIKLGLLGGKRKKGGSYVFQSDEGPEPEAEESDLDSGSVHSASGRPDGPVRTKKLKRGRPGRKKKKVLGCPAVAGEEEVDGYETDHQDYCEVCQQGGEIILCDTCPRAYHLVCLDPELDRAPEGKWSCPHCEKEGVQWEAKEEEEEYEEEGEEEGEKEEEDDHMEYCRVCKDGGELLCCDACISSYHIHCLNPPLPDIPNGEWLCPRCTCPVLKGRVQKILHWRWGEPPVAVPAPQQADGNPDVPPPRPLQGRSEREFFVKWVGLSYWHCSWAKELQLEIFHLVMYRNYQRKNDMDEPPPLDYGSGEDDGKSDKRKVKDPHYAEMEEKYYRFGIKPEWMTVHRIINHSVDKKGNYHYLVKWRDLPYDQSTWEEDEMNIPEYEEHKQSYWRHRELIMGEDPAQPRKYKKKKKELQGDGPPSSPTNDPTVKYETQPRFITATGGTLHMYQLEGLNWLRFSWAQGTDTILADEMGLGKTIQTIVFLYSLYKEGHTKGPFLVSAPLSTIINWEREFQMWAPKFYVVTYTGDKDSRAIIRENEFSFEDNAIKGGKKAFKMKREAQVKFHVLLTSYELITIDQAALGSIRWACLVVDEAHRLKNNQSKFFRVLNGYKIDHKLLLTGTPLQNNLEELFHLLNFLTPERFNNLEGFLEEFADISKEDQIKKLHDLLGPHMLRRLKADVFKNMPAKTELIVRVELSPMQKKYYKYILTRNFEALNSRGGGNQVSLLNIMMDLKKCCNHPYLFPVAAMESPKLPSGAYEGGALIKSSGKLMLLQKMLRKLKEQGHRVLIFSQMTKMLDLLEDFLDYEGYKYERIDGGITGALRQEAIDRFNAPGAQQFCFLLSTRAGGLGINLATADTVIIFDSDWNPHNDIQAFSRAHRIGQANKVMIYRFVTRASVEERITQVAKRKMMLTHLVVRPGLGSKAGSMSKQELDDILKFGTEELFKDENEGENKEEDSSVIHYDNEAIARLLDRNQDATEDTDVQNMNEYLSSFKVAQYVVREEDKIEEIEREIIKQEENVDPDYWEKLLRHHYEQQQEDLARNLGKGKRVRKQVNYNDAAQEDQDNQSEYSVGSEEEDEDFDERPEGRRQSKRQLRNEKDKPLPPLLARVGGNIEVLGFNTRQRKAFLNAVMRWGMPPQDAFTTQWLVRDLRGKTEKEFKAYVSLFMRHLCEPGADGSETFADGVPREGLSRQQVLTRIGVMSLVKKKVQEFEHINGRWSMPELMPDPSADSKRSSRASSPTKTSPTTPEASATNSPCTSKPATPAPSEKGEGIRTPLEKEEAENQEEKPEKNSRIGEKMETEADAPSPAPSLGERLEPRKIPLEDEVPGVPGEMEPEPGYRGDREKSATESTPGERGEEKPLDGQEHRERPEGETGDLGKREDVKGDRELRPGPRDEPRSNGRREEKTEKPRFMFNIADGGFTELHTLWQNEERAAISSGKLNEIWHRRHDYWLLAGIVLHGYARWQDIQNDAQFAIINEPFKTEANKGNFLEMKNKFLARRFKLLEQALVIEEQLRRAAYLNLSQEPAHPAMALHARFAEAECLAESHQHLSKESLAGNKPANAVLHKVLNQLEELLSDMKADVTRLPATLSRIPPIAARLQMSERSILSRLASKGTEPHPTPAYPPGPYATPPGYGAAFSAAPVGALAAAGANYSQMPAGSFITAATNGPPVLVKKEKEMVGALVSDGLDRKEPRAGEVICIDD
# Molecular target: full-length C/EBPβ derived from SU-DHL1 cells (human (endogenous in SU-DHL1)) (UniProt P17676)
# Experiment: affinity purification with mass spectrometry
row,Substance,binding
1,MBD2 (endogenous) (from UniProt Q9UBB5 1-411),binds
2,CHD4 (from UniProt Q14839 1-1912),binds
3,HDAC1 (from UniProt Q13547 1-482),binds
4,CHD3 (from UniProt Q12873 1-2000),binds

# Results are given in words; binding and its absence hold for the method and conditions named. In cells and extracts the contact can be indirect. A yes stands for co-enrichment or nearness to the bait. Other partners may have been found.
